The other results are listed elsewhere or left out.
How the values were obtained:
Experiment in all cases: log2 fold change, soluble protein after heating vs DMSO (PISA); higher = thermal stabilisation; K562 cells, 10 uM, 30 min; active = over 0.2 and 3.5 SD of the protein, either way, in both replicates (recomputed)
[1] = compound: COC1=CC=C(C=C1)CN2C=CC3=C2C=C(C=C3)C(=O)NO
How it was run: (§1)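 K562 cells at 2×10^6 cells/mL were given 10 μM compound for 30 min. Aliquots then went through 3 min of heating across 48°C-58°C, were pooled, and were extracted in PBS with 0.5% NP-40 at 4°C, and the supernatant after 21,000xg for 90 min was quantified by TMTpro 16plex LC-MS/MS with channel sums equalised. Thermal stability relative to control samples, from duplicates, is given as log2 fold change.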

The chains behind the UniProt entries cited, without tags or fusion partners. Where a name states a change or a piece, a line headed by the entry shows the natural chain unless it says otherwise.
UniProt Q9BV29: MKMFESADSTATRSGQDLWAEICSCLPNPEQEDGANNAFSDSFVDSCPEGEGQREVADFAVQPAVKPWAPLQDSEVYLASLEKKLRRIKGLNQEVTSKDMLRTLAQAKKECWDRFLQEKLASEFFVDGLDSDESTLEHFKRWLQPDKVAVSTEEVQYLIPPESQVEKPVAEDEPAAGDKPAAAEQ
UniProt Q9H6F5: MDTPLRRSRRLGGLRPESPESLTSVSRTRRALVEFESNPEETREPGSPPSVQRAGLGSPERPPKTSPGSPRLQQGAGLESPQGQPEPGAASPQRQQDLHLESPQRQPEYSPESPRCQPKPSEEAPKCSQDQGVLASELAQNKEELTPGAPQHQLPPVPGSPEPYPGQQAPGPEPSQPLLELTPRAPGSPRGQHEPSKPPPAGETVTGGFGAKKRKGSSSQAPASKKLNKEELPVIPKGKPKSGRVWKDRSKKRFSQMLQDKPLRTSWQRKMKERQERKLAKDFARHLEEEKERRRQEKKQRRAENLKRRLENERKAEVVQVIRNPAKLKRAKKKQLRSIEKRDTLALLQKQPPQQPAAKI
UniProt Q8N4T8: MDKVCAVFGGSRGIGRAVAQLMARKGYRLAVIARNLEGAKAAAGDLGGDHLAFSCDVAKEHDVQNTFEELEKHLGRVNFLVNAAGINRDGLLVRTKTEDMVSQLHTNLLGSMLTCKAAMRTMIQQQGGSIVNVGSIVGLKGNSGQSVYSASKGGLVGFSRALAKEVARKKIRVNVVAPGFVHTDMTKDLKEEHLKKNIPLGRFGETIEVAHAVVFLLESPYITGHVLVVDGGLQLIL
UniProt Q9H6E4: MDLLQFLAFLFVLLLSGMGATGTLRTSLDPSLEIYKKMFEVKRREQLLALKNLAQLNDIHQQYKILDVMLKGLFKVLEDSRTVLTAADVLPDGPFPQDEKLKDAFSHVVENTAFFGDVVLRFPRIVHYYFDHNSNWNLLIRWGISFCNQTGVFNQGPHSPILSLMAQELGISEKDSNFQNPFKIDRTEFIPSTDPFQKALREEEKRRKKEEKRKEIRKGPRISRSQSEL
UniProt O15446, whole entry, looked up: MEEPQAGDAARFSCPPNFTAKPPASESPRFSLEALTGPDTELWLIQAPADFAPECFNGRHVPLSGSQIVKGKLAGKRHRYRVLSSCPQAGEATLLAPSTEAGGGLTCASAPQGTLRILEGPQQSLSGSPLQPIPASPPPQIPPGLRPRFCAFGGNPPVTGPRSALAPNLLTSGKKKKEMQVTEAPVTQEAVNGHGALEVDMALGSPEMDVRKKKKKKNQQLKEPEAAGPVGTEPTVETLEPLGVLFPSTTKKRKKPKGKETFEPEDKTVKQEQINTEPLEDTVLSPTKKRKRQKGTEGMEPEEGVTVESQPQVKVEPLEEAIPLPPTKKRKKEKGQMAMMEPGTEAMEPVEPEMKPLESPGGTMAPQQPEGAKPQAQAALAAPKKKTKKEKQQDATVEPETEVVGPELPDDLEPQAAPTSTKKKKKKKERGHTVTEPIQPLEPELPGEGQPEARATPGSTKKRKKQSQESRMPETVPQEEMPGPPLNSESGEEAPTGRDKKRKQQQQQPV
UniProt Q9BRT8: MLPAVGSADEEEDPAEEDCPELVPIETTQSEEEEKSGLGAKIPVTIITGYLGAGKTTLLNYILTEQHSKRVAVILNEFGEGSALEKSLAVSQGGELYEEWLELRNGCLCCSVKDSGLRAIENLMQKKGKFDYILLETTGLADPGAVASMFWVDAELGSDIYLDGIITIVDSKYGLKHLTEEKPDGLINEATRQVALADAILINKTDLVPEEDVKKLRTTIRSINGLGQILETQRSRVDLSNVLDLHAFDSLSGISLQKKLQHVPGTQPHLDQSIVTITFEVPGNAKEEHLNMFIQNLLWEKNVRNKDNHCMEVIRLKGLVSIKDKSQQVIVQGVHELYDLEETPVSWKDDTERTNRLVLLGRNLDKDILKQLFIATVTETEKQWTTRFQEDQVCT
UniProt Q96A33: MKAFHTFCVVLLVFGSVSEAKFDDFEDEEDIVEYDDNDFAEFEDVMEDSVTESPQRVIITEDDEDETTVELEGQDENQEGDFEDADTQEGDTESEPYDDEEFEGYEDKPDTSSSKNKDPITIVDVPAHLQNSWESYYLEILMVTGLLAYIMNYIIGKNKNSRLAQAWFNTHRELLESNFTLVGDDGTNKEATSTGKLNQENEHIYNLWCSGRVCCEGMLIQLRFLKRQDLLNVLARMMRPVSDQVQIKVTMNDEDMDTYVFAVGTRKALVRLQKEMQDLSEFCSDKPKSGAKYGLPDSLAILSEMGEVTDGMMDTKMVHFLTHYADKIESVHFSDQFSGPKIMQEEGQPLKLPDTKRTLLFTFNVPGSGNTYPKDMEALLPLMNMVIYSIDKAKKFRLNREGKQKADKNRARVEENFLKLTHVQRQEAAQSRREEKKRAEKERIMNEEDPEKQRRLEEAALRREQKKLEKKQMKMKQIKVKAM
UniProt Q96MW1: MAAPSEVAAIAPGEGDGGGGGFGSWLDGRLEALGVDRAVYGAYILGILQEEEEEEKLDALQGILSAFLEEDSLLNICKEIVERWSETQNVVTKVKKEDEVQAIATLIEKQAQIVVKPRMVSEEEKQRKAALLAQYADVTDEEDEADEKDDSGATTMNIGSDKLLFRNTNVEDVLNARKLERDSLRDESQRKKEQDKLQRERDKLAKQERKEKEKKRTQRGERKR
UniProt P48960: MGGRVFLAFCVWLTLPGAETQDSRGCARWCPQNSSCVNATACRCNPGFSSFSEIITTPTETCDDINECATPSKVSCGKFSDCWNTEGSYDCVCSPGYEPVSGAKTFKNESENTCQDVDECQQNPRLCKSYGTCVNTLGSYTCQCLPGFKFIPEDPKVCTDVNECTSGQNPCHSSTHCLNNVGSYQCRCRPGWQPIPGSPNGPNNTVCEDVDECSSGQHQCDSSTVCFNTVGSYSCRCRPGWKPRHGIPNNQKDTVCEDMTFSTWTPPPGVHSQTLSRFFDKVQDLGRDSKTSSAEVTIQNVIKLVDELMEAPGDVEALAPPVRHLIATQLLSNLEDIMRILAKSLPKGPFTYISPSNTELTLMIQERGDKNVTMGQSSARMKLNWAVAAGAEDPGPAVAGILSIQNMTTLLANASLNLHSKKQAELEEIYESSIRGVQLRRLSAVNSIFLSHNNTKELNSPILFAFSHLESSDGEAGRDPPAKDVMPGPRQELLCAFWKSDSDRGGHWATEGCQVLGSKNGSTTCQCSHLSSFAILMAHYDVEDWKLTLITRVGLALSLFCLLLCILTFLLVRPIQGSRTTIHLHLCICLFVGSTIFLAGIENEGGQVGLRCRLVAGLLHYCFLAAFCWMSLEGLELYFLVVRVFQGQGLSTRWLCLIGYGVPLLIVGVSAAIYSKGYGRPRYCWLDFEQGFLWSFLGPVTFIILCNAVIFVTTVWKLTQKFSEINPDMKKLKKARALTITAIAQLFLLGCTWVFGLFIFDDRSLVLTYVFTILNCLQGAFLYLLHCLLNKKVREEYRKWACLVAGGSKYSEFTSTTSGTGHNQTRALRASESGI
UniProt Q4VC31: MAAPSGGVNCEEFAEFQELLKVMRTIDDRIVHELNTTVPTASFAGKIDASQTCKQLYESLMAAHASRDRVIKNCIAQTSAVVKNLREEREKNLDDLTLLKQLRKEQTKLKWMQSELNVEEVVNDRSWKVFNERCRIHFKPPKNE
UniProt P15529: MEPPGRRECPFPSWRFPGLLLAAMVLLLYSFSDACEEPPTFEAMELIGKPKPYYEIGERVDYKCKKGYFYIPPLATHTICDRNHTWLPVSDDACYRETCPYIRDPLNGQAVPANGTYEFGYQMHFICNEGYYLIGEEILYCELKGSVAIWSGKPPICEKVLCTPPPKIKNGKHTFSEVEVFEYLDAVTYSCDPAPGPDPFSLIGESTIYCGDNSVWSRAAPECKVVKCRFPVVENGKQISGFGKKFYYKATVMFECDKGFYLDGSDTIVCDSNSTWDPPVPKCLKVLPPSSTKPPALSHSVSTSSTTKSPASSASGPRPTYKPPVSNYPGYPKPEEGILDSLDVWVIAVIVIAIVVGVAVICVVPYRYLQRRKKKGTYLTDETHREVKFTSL
UniProt Q96NT0: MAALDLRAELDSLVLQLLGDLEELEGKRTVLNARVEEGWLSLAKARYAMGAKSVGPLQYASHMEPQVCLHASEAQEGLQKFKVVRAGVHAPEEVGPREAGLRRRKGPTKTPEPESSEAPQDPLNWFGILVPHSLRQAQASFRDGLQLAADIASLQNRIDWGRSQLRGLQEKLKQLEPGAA
UniProt Q9Y5K6, whole entry, looked up: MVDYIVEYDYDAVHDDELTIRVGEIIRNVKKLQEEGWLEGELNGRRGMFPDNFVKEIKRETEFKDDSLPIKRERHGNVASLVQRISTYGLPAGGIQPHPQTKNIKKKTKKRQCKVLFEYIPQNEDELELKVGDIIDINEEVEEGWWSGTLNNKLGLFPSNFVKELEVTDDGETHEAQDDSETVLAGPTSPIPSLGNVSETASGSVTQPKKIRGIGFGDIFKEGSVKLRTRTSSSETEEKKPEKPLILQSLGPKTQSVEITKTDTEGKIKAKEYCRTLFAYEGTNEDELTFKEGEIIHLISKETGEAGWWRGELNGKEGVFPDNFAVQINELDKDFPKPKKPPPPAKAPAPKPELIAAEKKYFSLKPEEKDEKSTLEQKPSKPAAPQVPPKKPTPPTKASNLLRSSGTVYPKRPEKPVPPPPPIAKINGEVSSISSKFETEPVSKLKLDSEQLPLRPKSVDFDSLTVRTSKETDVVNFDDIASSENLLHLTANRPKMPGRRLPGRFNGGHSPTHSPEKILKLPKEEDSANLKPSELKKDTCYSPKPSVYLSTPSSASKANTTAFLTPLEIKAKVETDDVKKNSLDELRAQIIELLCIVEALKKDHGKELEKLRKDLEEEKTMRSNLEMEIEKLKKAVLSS
UniProt Q7Z6B0: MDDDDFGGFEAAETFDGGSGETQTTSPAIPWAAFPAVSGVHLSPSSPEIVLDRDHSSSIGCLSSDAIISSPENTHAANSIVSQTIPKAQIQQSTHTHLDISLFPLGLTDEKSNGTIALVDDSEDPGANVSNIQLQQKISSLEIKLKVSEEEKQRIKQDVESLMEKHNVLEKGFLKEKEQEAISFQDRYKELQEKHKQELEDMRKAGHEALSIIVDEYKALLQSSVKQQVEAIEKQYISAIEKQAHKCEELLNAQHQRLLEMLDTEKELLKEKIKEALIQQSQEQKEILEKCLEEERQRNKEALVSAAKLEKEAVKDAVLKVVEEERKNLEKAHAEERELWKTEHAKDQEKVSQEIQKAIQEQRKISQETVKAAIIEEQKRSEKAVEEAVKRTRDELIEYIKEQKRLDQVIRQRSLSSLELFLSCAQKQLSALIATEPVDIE
UniProt Q96BQ5: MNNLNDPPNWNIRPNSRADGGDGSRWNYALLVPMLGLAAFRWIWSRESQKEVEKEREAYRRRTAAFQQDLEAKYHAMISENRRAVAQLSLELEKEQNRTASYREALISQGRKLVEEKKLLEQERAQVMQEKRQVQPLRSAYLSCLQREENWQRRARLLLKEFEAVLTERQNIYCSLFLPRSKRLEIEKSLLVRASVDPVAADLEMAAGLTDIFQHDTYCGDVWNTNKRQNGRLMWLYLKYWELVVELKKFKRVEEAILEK
UniProt Q99832: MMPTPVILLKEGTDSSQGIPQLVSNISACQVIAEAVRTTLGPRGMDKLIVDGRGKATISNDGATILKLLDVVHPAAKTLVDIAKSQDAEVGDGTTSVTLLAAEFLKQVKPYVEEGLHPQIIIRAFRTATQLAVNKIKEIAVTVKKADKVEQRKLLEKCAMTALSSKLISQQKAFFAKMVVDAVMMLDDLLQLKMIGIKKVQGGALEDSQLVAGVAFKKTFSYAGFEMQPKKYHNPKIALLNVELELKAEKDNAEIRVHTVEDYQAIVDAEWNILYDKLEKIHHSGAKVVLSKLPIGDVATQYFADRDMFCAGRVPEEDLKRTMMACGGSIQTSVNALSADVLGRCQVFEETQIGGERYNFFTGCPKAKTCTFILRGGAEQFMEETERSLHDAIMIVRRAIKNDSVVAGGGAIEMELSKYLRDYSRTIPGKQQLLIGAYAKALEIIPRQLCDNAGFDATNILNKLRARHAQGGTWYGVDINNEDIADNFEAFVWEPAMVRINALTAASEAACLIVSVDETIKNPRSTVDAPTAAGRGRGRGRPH

[2] = compound: CON(C)C(=O)N1N=C(c2cc(F)ccc2F)S[C@@]1(CCCN)c1ccccc1 [filanesib]
How it was run: as §1

[3] = compound: CO[C@H]1C[C@@H]2CC[C@@H](C)[C@@](O)(O2)C(=O)C(=O)N2CCCC[C@H]2C(=O)O[C@H]([C@H](C)C[C@@H]2CC[C@H](n3cnnn3)[C@H](OC)C2)CC(=O)[C@H](C)/C=C(\C)[C@@H](O)[C@@H](OC)C(=O)[C@H](C)C[C@H](C)/C=C/C=C/C=C/1C [zotarolimus]
How it was run: as §1

[4] = compound: COc1cc(C(=O)O)ccc1NC(=O)[C@@H]1N[C@@H](CC(C)(C)C)[C@](C#N)(c2ccc(Cl)cc2F)[C@H]1c1cccc(Cl)c1F [idasanutlin]
How it was run: as §1

[5] = compound: COc1cc(Nc2ncc3c(n2)-c2ccc(Cl)cc2C(c2c(F)cccc2OC)=NC3)ccc1C(=O)O [alisertib]
How it was run: as §1

[6] = compound: COc1cc2nc(-c3cc(F)ccc3O)nc(N[C@@H]3CNC[C@H]3C(C)(C)O)c2cc1OC
How it was run: as §1

[7] = compound: COc1cc2ncnc(Nc3ccc(F)c(Cl)c3)c2cc1OCCCN1CCOCC1 [gefitinib]
How it was run: as §1

[8] = compound: COc1cccc2cc(-c3nc([C@H]4CC[C@H](C(=O)O)CC4)n4ncnc(N)c34)[nH]c12
How it was run: as §1

[9] = compound: CS(=O)(=O)CCNCc1ccc(-c2ccc3ncnc(Nc4ccc(OCc5cccc(F)c5)c(Cl)c4)c3c2)o1 [lapatinib]
How it was run: as §1

[10] = compound: CS(=O)(=O)N1CCN(Cc2cc3nc(-c4cccc5[nH]ncc45)nc(N4CCOCC4)c3s2)CC1 [pictilisib]
How it was run: as §1

[11] = compound: CS(=O)(=O)c1ccc(-c2cnc(N)c(C(=O)Nc3ccccc3)n2)cc1
How it was run: as §1

[12] = compound: C[C@@H](Oc1cc(-c2cnn(C3CCNCC3)c2)cnc1N)c1c(Cl)ccc(F)c1Cl [crizotinib]
How it was run: as §1

[13] = compound: C[C@@H]1COCCN1C2=NC(=NC(=C2)C3(CC3)S(=O)(=O)C)C4=C5C=CNC5=CC=C4
How it was run: as §1

[14] = compound: C[C@H](C1=CC=C(C=C1)C(=O)NC2=C3C=CNC3=NC=C2)N
How it was run: as §1

[15] = compound: C[C@H](Nc1ncnc2nc[nH]c12)c1cc2cccc(Cl)c2c(=O)n1-c1ccccc1 [duvelisib]
How it was run: as §1

[16] = compound: Cc1cc(Nc2cc(CN3CCOCC3)c3nc(C)c(Cc4ccc(Cl)cc4F)n3n2)n[nH]1 [gandotinib]
How it was run: as §1

[17] = compound: Cc1cc(Nc2cc(N3CCN(C)CC3)nc(Sc3ccc(NC(=O)C4CC4)cc3)n2)n[nH]1 [tozasertib]
How it was run: as §1

[18] = compound: Cc1cc(SCc2sc(-c3ccc(C(F)(F)F)cc3)nc2C)ccc1OCC(=O)O
How it was run: as §1

[19] = compound: Cc1ccc(-n2nc(C(C)(C)C)cc2NC(=O)Nc2ccc(OCCN3CCOCC3)c3ccccc23)cc1 [doramapimod]
How it was run: as §1

[20] = compound: Cc1ccc(C(=O)N(CCCN)[C@@H](c2nc3cc(Cl)ccc3c(=O)n2Cc2ccccc2)C(C)C)cc1 [ispinesib]
How it was run: as §1

Measured: log2 fold change

CCDC32 isoform 2 (UniProt Q9BV29)
inactive: [1] -0.005 | [2] 0.028 | [3] -0.024 | [4] 0.083 | [5] -0.001 | [6] -0.003 | [7] -0.051 | [8] 0.076 | [9] -0.014 | [10] -0.01 | [11] -0.054 | [12] -0.053 | [13] 0.014 | [14] -0.066 | [15] 0.064 | [16] -0.052 | [17] -0.015 | [18] -0.019 | [19] -0.007 | [20] 0.12

CCDC86 (UniProt Q9H6F5)
inactive: [1] -0.127 | [2] 0.335 | [3] 0.004 | [4] 0.085 | [5] -0.1 | [6] 0.024 | [7] 0.007 | [8] -0.15 | [9] 0.137 | [10] -0.023 | [11] -0.061 | [12] 0.058 | [13] -0.451 | [14] 0.368 | [15] -0.131 | [16] 0.345 | [17] 0.045 | [18] -0.013 | [19] 0.183 | [20] -0.168

CBR4 (UniProt Q8N4T8)
inactive: [1] -0.007 | [2] 0.001 | [3] -0.011 | [4] -0.13 | [5] -0.006 | [6] 0.017 | [7] -0.01 | [8] 0.047 | [9] -0.018 | [10] 0.025 | [11] 0.016 | [12] 0.049 | [13] 0.011 | [14] -0.052 | [15] 0.06 | [16] 0.117 | [17] -0.026 | [18] 0.014 | [19] 0.021 | [20] 0.003

Quoted at random: 2 records from the list.
CCDC86 (UniProt Q9H6F5)
inactive: [1] -0.127 | [2] 0.335 | [3] 0.004 | [4] 0.085 | [5] -0.1 | [6] 0.024 | [7] 0.007 | [8] -0.15 | [9] 0.137 | [10] -0.023 | [11] -0.061 | [12] 0.058 | [13] -0.451 | [14] 0.368 | [15] -0.131 | [16] 0.345 | [17] 0.045 | [18] -0.013 | [19] 0.183 | [20] -0.168

CCDC32 isoform 2 (UniProt Q9BV29)
inactive: [1] -0.005 | [2] 0.028 | [3] -0.024 | [4] 0.083 | [5] -0.001 | [6] -0.003 | [7] -0.051 | [8] 0.076 | [9] -0.014 | [10] -0.01 | [11] -0.054 | [12] -0.053 | [13] 0.014 | [14] -0.066 | [15] 0.064 | [16] -0.052 | [17] -0.015 | [18] -0.019 | [19] -0.007 | [20] 0.12

Further records

CCDC134 (UniProt Q9H6E4)
inactive: [1] -0.041 | [2] 0.019 | [3] 0.006 | [4] 0.014 | [5] -0.096 | [6] -0.056 | [7] 0.003 | [8] -0.02 | [9] 0.035 | [10] -0.065 | [11] 0.035 | [12] -0.003 | [13] -0.117 | [14] 0.091 | [15] -0.084 | [16] 0.008 | [17] 0.036 | [18] -0.014 | [19] 0.044 | [20] -0.022

CD3EAP isoform 2 (UniProt O15446)
inactive: [1] -0.001 | [2] 0.19 | [3] -0.023 | [4] 0.095 | [5] -0.046 | [6] -0.078 | [7] -0.02 | [8] 0.008 | [9] 0.01 | [10] 0.037 | [11] -0.029 | [12] -0.042 | [13] -0.241 | [14] 0.083 | [15] -0.052 | [16] 0.048 | [17] -0.005 | [18] -0.03 | [19] 0.124 | [20] -0.066

CBWD1 (UniProt Q9BRT8)
inactive: [1] 0.027 | [2] -0.048 | [3] 0.019 | [4] 0.081 | [5] -0.017 | [6] 0.062 | [7] -0.071 | [8] -0.001 | [9] 0.029 | [10] -0.083 | [11] 0.079 | [12] -0.07 | [13] 0.044 | [14] 0.178 | [15] -0.002 | [16] 0.231 | [17] 0.107 | [18] 0.041 | [19] 0.013 | [20] -0.211

CCDC47 (UniProt Q96A33)
inactive: [1] 0.168 | [2] 0.005 | [3] -0.005 | [4] -0.058 | [5] -0.031 | [6] 0.008 | [7] -0.034 | [8] 0.014 | [9] -0.081 | [10] 0.018 | [11] 0.03 | [12] -0.026 | [13] 0.067 | [14] 0.01 | [15] 0.024 | [16] -0.077 | [17] 0.008 | [18] 0.006 | [19] 0.036 | [20] -0.043

CCDC43 (UniProt Q96MW1)
inactive: [1] 0.003 | [2] -0.028 | [3] 0.06 | [4] -0.007 | [5] -0.106 | [6] -0.025 | [7] 0.027 | [8] -0.001 | [9] 0.05 | [10] -0.036 | [11] 0.035 | [12] 0.046 | [13] 0.037 | [14] -0.188 | [15] 0.016 | [16] -0.018 | [17] 0.017 | [18] -0.044 | [19] 0.011 | [20] -0.042

CD97 (UniProt P48960)
inactive: [1] 0.074 | [2] -0.004 | [3] -0.012 | [4] 0.033 | [5] 0.181 | [6] -0.012 | [7] -0.009 | [8] -0.068 | [9] 0.034 | [10] -0.062 | [11] 0.07 | [12] 0.062 | [13] -0.013 | [14] -0.061 | [15] -0.058 | [16] 0.146 | [17] 0.012 | [18] -0.069 | [19] -0.039 | [20] -0.001

CCDC58 (UniProt Q4VC31)
inactive: [1] -0.043 | [2] 0.011 | [3] -0.02 | [4] -0.003 | [5] -0.07 | [6] 0.005 | [7] -0.013 | [8] 0.054 | [9] -0.007 | [10] 0.068 | [11] -0.03 | [12] 0.037 | [13] -0.009 | [14] -0.06 | [15] 0 | [16] 0.019 | [17] -0.028 | [18] -0.001 | [19] -0.031 | [20] 0.01

CD46 isoform 2 (UniProt P15529)
inactive: [1] -0.005 | [2] 0.057 | [3] -0.021 | [4] 0.007 | [5] -0.059 | [6] 0.121 | [7] -0.006 | [8] 0.004 | [9] -0.004 | [10] 0.108 | [11] 0.038 | [12] 0.108 | [13] 0.019 | [14] -0.091 | [15] 0.095 | [16] -0.04 | [17] -0.024 | [18] 0.005 | [19] -0.036 | [20] 0.126

CCDC115 (UniProt Q96NT0)
inactive: [1] 0.05 | [2] 0.005 | [3] -0.009 | [4] -0.007 | [5] -0.094 | [6] -0.021 | [7] 0.043 | [8] -0.001 | [9] 0.003 | [10] 0.09 | [11] -0.001 | [12] 0.083 | [13] 0.008 | [14] -0.118 | [15] 0.061 | [16] -0.023 | [17] 0.032 | [18] -0.046 | [19] -0.012 | [20] 0.053

CD2AP (UniProt Q9Y5K6)
inactive: [1] 0.001 | [2] 0.025 | [3] 0.015 | [4] 0.008 | [5] -0.027 | [6] 0.041 | [7] 0.003 | [8] -0.012 | [9] -0.01 | [10] 0.035 | [11] 0.048 | [12] -0.061 | [13] 0.032 | [14] -0.081 | [15] 0.008 | [16] 0.028 | [17] -0.015 | [18] 0.005 | [19] 0 | [20] 0.024

CCDC91 (UniProt Q7Z6B0)
inactive: [1] 0.114 | [2] -0.037 | [3] -0.066 | [4] 0.04 | [5] -0.051 | [6] -0.006 | [7] 0.016 | [8] -0.012 | [9] -0.009 | [10] 0.036 | [11] 0.056 | [12] -0.022 | [13] 0.037 | [14] 0.065 | [15] 0.01 | [16] -0.04 | [17] 0.01 | [18] -0.003 | [19] 0.05 | [20] -0.018

CCDC127 (UniProt Q96BQ5)
inactive: [1] -0.024 | [2] 0.002 | [3] 0.027 | [4] 0.031 | [5] 0.012 | [6] 0.164 | [7] 0.019 | [8] -0.057 | [9] 0.048 | [10] 0.001 | [11] -0.013 | [12] 0.053 | [13] 0.016 | [14] 0.078 | [15] 0.036 | [16] 0 | [17] -0.068 | [18] -0.013 | [19] 0.056 | [20] 0.083

CCT7 (UniProt Q99832)
inactive: [1] -0.02 | [2] -0.023 | [3] 0.02 | [4] -0.019 | [5] -0.042 | [6] -0.014 | [7] -0.011 | [8] -0.013 | [9] 0.001 | [10] -0.068 | [11] -0.015 | [12] -0.004 | [13] 0.018 | [14] -0.025 | [15] -0.04 | [16] -0.018 | [17] 0.005 | [18] -0.011 | [19] -0.006 | [20] 0.008

From the supplement of paper PMC10849652
